Test results from PubChem BioAssay AID2662 (National Center for Advancing Translational Sciences (NCATS), 2010).
Among all 290,000 compounds or so, about 110 (0.038%) were called active. This list was built around the results that the source calls inconclusive (neither active nor inactive); the mix of calls is not that of the screen. Calls come from the whole dose curve; as a rule, active = well fitted inhibition curve with a large enough effect in the polarisation, with a control signal flat (not every such curve was filed as active); inconclusive = small, poorly fitted or top-dose-only effect, or effect the other way, or a change in a side signal; inactive = no such curve, though single readings can be large or run the other way; the % refers to the polarisation. Potencies beside an inconclusive call are fits to weak or partial responses and may not hold up. A note “side channel” means that the fit belongs to a control or component signal, not to the main read-out.

The chains behind the UniProt entries cited, without tags or fusion partners.
UniProt Q03164, whole entry, looked up: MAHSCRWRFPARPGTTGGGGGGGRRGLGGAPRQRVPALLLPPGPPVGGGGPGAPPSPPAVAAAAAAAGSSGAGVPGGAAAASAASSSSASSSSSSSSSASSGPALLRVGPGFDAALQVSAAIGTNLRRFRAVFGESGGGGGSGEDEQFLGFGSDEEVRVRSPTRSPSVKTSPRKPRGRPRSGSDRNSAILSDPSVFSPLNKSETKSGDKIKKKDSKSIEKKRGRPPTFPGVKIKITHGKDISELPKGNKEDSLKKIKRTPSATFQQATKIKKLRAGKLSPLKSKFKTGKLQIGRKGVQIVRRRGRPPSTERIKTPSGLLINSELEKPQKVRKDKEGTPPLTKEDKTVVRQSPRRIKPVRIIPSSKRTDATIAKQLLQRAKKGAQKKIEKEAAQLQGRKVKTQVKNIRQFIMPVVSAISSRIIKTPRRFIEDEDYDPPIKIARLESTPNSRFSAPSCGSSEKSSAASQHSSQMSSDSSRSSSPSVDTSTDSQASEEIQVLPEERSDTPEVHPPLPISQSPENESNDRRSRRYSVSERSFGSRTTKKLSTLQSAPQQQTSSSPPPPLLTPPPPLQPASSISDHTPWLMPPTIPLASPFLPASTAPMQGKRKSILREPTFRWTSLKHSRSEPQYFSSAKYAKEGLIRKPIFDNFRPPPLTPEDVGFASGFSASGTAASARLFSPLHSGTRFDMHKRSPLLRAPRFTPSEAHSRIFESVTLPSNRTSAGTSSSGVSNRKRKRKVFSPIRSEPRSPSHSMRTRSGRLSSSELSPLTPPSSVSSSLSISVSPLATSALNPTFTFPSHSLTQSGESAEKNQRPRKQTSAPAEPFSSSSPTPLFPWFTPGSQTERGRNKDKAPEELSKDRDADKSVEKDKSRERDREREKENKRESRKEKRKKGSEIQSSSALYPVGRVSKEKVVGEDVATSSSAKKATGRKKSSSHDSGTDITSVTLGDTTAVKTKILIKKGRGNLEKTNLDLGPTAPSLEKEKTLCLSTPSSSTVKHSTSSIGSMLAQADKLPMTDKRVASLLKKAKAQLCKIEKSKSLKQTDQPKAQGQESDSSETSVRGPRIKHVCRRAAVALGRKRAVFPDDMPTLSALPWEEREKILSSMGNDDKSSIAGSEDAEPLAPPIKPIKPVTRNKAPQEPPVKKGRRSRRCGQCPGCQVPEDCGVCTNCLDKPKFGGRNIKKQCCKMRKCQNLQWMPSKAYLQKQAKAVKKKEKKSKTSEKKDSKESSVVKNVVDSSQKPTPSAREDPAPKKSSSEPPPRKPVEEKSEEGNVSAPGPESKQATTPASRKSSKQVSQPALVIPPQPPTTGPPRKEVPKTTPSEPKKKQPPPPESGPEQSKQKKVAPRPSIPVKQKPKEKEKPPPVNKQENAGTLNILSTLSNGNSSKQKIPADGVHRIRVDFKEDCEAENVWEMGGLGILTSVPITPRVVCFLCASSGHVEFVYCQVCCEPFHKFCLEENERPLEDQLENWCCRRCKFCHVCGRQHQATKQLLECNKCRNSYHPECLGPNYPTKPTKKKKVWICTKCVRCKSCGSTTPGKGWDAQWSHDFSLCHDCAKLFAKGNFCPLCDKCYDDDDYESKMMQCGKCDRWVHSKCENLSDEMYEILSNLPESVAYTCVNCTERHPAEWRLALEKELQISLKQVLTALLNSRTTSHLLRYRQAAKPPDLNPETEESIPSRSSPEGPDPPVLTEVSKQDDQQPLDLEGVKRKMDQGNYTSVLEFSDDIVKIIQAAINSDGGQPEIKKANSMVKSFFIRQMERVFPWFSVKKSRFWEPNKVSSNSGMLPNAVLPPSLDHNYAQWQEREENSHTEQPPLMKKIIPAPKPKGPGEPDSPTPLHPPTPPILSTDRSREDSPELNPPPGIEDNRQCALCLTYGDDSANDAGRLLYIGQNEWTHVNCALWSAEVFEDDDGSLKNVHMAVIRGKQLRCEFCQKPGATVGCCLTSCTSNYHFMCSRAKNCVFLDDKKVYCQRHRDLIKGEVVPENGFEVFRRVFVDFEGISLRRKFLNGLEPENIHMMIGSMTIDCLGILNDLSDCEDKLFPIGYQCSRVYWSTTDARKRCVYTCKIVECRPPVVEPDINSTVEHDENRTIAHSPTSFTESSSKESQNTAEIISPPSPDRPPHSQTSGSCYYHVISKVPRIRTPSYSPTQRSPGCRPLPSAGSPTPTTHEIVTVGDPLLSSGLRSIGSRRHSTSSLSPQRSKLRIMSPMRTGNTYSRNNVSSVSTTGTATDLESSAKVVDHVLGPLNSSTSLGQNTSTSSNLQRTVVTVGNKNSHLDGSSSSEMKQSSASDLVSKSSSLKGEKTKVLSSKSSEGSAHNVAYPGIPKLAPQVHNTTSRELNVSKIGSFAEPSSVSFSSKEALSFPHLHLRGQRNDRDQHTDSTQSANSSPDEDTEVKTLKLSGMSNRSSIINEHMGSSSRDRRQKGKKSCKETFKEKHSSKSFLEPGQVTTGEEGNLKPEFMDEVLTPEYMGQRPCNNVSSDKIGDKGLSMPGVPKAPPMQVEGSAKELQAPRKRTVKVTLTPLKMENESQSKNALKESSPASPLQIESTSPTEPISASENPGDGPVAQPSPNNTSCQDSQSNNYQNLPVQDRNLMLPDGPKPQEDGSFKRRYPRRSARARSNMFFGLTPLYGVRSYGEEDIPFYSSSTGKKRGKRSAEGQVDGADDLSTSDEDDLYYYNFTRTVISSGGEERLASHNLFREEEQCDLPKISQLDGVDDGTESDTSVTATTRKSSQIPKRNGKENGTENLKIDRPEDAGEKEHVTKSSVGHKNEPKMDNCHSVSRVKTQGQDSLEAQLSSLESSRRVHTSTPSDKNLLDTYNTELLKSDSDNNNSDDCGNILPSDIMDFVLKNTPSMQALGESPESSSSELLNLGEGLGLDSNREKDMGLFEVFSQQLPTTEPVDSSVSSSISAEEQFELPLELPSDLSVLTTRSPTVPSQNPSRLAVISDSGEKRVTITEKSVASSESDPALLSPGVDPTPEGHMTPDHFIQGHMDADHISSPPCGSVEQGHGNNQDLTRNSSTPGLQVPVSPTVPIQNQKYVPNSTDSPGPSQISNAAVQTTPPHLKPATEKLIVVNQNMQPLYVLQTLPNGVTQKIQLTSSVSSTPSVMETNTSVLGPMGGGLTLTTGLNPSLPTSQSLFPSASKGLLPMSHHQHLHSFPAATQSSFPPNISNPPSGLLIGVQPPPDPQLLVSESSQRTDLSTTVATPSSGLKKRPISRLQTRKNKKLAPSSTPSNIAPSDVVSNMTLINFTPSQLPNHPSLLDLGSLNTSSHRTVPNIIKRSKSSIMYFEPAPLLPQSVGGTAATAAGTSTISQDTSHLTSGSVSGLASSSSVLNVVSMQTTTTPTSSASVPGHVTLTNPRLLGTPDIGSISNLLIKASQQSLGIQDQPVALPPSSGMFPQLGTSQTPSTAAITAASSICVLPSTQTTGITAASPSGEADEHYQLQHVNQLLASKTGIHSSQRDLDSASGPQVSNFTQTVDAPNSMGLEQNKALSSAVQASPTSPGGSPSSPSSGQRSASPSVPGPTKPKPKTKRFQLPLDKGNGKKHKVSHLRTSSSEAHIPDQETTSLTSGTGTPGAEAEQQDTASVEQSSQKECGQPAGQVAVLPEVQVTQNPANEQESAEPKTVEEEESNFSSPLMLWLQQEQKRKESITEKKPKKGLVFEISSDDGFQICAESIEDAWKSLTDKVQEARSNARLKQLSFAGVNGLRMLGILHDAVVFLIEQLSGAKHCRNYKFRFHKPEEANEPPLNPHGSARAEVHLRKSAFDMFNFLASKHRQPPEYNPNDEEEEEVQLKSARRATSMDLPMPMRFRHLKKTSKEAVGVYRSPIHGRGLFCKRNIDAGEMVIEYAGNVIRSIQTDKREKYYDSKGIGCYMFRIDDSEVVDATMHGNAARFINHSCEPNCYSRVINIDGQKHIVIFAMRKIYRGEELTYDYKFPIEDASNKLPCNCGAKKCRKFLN

Target: Histone-lysine N-methyltransferase 2A (Homo sapiens) (UniProt Q03164)
Assay: qHTS Fluorescence Polarization Assay for Inhibitors of MLL CXXC domain - DNA interaction
Conditions: MLL-CXXC / FITC-HOXA9 DNA fluorescence polarization; activity change, negative = inhibition: at 115 µM (top of the series)
Outline: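 Steps: dispense CXXC domain solution (7 uM) → pin compounds or unlabeled HOX-A9 DNA control → 5 min ambient → add FLSN-HOX-A9 solution (50 nM) → spin → 30 min ambient → fluorescence polarization. Tris pH 7.5/NaCl/DTT/BSA buffer.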
Potency is the fitted concentration of half-maximal effect.

SMILES | Potency | activity change, negative = inhibition
CCCCNC(=S)N1CCN(C(c2ccccc2)c2ccccc2)CC1 | inconclusive: 100 µM [fluorescent, side channel, partial curve, poor fit] | 
CCNc1ccc2noc3c2c1C(=O)c1ccccc1-3 | inconclusive: 1.12 µM [fluorescent, side channel, full curve] | 
CCOc1ccc2[nH]c(C(=O)N/N=C/c3ccc(OC)cc3)cc2c1 |  | inactive: 8.51%
Nc1ccc(N(CCO)CCO)cc1 |  | inactive: -2.38%
CCc1ccccc1NC(=O)C/C(C)=N/NC(=O)COc1ccccc1C | inconclusive: 56.2 µM [fluorescent, side channel, single point] | 
COc1ccc(C)cc1NC(=O)C(Sc1nnnn1C)c1ccccc1 (configuration not stated) | inconclusive: 31.6 µM [fluorescent, side channel, partial curve] | 
Cn1nccc1CNC(=O)c1ccnn1C | inconclusive: 44.7 µM [fluorescent, side channel, single point] | 
O=C(Nc1c2c(nn1-c1ccccc1)CSC2)c1ccc(N2C(=O)CCC2=O)cc1 | inconclusive: 35.5 µM [fluorescent, side channel, partial curve] | 
COc1cc2c(cc1OC)-c1cc(Nc3ccc(F)cc3)nc(=O)n1CC2 | inconclusive: 28.2 µM [inhibitor, partial curve] | 
CCOC(=O)Cn1c2[n+](c3ccccc31)CC(O)CS2 (configuration not stated) |  | inactive: -14.3%
C#CCOCCOCCOCCNc1nc(N2CCN(C(=O)C(Cc3cc4ccccc4[nH]3)n3cc(C(N)C(C)CC)nn3)CC2)nc(N2CCN(C(=O)C(Cc3cc4ccccc4[nH]3)n3cc(C(N)C(C)CC)nn3)CC2)n1 (configuration not stated) | inconclusive: 63.1 µM [quencher, side channel, partial curve, poor fit] | 
COc1ccc(/C=C2\CCCC(C(=O)C(F)(F)F)=C2O)cc1OC | inconclusive: 31.6 µM [fluorescent, side channel, partial curve] | 
NNC(=O)c1nn(-c2ccc(Cl)cc2)cc1O | inconclusive: 5.01 µM [inhibitor, partial curve] | 
CCN(CC)C(=S)SCC(=O)c1ccccc1 |  | inactive: -8.53%
O=S(=O)(/C=C/c1ccccc1)Nc1ccc(F)cc1 | inconclusive: 31.6 µM [inhibitor, single point] | 
O=C(Nc1ccc(S(=O)(=O)NC2=NCCCCC2)cc1)c1cc(S(=O)(=O)N2CCOCC2)ccc1F | inconclusive: 14.1 µM [fluorescent, side channel, single point] | 
CCN(CC)CCCNc1cc2n(c(=O)n1)CCc1cc(OC)c(OC)cc1-2 |  | inactive: 13.7%
Cc1c(C#N)c(O)n(CCO)c(=O)c1N=Nc1ccccc1 | inconclusive: 89.1 µM [inhibitor, single point] | 
Cc1cc(N2CCOCC2)nc(SCc2ccc(Cl)cc2Cl)n1 |  | inactive: -2.13%

A few values from above.
In Potency, O=S(=O)(/C=C/c1ccccc1)Nc1ccc(F)cc1 reads inconclusive: 31.6 µM [inhibitor, single point]
In Potency, CCNc1ccc2noc3c2c1C(=O)c1ccccc1-3 reads inconclusive: 1.12 µM [fluorescent, side channel, full curve]
In activity change, negative = inhibition, Nc1ccc(N(CCO)CCO)cc1 reads inactive: -2.38%

Later entries:

SMILES | Potency | activity change, negative = inhibition
COc1ccccc1N(Cc1ccccc1)S(=O)(=O)c1cccc(C(=O)Nc2ccc(C(C)=O)cc2)c1 | inconclusive: 112 µM [fluorescent, side channel, partial curve, poor fit] | 
O=c1cc2oc3cc(O)c(O)cc3c(-c3ccccc3[N+](=O)[O-])c-2cc1O | inconclusive: 44.7 µM [quencher, side channel, partial curve] | 
CCn1c(=NC(=O)c2ccc(N3C(=O)CCC3=O)cc2)sc2c(OC)ccc(OC)c21 | inconclusive: 14.1 µM [fluorescent, side channel, single point] | 
Cc1ccc(-n2c(C)cc(C(=O)NS(=O)(=O)c3ccc(C)cc3)c2C)cc1 | inconclusive: 89.1 µM [inhibitor, single point] | 
CCN(CC)CCCN(C(=O)c1ccc(OC)cc1)c1nc(-c2ccc(OC)cc2)cs1 | inconclusive: 25.1 µM [quencher, side channel, partial curve] | 
Cc1c(C(=O)OCC(=O)NCc2ccc3c(c2)OCO3)cccc1[N+](=O)[O-] | inconclusive: 0.891 µM [fluorescent, side channel, full curve, poor fit] | 
O=C1c2ccccc2-c2onc3c(N4CCN(CCO)CC4)cc(N4CCN(C(=O)c5ccco5)CC4)c1c23 | inconclusive: 22.4 µM [fluorescent, side channel, partial curve] | 
CN1C(=O)/C(=C/c2cccc([N+](=O)[O-])c2)C(=O)N1c1ccccc1 | inconclusive: 17.8 µM [inhibitor, partial curve] | 
CCOC(=O)C1(Cc2ccccc2C)CCCN(C(=O)c2ccoc2)C1 (configuration not stated) | inconclusive: 15.8 µM [fluorescent, side channel, single point] | 
CCOC(=O)Nc1c(Cl)n(C)c(=O)n(C)c1=O | inconclusive: 28.2 µM [inhibitor, single point] | 
CCCN(CC(=O)Nc1ccccc1C)C(=O)c1cccc(-n2cnnn2)c1 | inconclusive: 10 µM [fluorescent, side channel, single point] | 
Cc1ccccc1CSCC(=O)c1c(N)n(CC(C)C)c(=O)n(C)c1=O | inconclusive: 1.58 µM [quencher, side channel, partial curve] | 
Nc1nonc1-n1nnc(C(=O)N/N=C/c2ccc(OCc3cccc(Cl)c3)cc2)c1CN1CCCCC1 |  | inactive: -12.1%
CCOC(=O)N1CCN(S(=O)(=O)c2ccc(C(=O)Nc3nc4ccccc4s3)cc2)CC1 |  | inactive: 5.84%
CN(C)c1ccc(/C=C(/C#N)C(=O)NCc2ccccc2)o1 | inconclusive: 25.1 µM [fluorescent, side channel, partial curve] | 
COc1cc(/C=C(\C#N)c2nc3ccccc3n2C)cc(OC)c1O | inconclusive: 6.31 µM [fluorescent, side channel, full curve] | 
Cc1ccccc1C(=O)c1cccn1CC(=O)NCc1ccccc1Cl |  | inactive: 1.23%
CCn1c(C)c(C2=CCN(S(=O)(=O)c3ccc(C)cc3)CC2)c2ccccc21 | inconclusive: 1.58 µM [quencher, side channel, full curve, poor fit] | 
